Laboratory results: the supplement of paper PMC6411743
± gives the standard deviation of the averaged measurements. The list shows a part of the results.

The chains behind the UniProt entries cited, without tags or fusion partners. Where a name states a change or a piece, a line headed by the entry shows the natural chain unless it says otherwise.
UniProt Q96AE7: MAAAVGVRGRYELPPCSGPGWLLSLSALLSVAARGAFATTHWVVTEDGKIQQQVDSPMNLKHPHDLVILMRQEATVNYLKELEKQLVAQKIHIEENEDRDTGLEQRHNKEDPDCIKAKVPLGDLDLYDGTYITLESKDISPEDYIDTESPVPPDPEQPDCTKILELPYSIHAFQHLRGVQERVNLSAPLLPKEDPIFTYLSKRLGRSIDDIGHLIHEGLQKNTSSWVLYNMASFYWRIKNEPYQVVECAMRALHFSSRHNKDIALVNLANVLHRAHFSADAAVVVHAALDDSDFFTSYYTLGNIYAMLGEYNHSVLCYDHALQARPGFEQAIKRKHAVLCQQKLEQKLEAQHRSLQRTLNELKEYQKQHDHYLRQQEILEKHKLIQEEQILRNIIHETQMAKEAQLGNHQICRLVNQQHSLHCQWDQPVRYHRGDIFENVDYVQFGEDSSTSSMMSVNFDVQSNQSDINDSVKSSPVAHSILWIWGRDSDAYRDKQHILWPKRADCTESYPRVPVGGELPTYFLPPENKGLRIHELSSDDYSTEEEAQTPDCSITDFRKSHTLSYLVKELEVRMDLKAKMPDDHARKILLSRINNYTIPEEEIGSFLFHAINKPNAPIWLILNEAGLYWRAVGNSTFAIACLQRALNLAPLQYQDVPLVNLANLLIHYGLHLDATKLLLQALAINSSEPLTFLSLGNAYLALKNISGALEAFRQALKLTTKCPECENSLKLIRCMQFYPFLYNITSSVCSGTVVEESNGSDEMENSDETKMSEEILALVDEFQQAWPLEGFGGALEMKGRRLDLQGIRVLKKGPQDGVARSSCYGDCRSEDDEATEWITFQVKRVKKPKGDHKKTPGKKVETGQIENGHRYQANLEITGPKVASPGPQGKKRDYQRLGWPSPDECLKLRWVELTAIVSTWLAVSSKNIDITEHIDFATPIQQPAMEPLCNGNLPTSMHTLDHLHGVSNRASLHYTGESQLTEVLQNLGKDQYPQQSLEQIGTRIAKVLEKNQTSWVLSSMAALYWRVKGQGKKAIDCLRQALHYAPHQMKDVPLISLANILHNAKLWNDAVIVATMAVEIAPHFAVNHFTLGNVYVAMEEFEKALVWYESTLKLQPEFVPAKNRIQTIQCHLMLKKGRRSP
UniProt Q96EK6: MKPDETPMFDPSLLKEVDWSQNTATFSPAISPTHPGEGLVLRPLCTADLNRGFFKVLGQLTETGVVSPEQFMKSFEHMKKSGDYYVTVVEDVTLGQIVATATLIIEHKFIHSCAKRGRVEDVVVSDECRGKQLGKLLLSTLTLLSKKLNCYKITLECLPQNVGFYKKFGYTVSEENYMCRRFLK
UniProt Q8WWC4: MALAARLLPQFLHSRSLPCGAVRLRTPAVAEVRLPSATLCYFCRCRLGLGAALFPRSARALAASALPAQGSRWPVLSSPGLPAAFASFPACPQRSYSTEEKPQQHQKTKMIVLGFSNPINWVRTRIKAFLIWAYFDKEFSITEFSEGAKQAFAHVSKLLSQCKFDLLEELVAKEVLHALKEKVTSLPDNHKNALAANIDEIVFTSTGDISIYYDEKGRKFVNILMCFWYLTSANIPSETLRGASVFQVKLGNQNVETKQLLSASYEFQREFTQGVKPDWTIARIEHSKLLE
UniProt Q96HY6: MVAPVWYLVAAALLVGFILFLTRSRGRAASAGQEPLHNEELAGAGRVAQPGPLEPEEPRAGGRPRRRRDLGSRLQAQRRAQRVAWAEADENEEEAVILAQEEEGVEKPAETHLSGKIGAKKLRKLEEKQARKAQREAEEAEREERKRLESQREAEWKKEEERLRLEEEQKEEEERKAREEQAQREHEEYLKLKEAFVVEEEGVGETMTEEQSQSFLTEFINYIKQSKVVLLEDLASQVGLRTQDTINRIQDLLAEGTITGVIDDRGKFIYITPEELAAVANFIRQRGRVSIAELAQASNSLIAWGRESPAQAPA
UniProt Q96CN4: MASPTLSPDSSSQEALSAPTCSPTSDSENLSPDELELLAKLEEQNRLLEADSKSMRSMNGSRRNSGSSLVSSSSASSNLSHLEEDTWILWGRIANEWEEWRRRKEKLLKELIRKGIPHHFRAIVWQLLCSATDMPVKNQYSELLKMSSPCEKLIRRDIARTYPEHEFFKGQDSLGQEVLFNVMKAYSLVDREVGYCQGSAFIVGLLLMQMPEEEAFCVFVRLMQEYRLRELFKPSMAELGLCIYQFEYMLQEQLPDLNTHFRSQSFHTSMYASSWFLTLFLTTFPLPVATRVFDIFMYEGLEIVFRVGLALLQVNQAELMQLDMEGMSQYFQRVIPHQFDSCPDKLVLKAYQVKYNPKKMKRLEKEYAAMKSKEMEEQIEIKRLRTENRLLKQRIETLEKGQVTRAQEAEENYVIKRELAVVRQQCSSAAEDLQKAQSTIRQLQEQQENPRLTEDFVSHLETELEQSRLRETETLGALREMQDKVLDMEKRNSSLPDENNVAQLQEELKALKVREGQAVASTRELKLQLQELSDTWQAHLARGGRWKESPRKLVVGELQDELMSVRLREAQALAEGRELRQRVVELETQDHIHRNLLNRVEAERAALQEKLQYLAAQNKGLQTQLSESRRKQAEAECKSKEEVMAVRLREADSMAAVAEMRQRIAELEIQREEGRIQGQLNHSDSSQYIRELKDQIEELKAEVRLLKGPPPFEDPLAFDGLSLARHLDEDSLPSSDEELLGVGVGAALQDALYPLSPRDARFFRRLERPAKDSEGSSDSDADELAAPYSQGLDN
UniProt Q8WXG6, whole entry, looked up: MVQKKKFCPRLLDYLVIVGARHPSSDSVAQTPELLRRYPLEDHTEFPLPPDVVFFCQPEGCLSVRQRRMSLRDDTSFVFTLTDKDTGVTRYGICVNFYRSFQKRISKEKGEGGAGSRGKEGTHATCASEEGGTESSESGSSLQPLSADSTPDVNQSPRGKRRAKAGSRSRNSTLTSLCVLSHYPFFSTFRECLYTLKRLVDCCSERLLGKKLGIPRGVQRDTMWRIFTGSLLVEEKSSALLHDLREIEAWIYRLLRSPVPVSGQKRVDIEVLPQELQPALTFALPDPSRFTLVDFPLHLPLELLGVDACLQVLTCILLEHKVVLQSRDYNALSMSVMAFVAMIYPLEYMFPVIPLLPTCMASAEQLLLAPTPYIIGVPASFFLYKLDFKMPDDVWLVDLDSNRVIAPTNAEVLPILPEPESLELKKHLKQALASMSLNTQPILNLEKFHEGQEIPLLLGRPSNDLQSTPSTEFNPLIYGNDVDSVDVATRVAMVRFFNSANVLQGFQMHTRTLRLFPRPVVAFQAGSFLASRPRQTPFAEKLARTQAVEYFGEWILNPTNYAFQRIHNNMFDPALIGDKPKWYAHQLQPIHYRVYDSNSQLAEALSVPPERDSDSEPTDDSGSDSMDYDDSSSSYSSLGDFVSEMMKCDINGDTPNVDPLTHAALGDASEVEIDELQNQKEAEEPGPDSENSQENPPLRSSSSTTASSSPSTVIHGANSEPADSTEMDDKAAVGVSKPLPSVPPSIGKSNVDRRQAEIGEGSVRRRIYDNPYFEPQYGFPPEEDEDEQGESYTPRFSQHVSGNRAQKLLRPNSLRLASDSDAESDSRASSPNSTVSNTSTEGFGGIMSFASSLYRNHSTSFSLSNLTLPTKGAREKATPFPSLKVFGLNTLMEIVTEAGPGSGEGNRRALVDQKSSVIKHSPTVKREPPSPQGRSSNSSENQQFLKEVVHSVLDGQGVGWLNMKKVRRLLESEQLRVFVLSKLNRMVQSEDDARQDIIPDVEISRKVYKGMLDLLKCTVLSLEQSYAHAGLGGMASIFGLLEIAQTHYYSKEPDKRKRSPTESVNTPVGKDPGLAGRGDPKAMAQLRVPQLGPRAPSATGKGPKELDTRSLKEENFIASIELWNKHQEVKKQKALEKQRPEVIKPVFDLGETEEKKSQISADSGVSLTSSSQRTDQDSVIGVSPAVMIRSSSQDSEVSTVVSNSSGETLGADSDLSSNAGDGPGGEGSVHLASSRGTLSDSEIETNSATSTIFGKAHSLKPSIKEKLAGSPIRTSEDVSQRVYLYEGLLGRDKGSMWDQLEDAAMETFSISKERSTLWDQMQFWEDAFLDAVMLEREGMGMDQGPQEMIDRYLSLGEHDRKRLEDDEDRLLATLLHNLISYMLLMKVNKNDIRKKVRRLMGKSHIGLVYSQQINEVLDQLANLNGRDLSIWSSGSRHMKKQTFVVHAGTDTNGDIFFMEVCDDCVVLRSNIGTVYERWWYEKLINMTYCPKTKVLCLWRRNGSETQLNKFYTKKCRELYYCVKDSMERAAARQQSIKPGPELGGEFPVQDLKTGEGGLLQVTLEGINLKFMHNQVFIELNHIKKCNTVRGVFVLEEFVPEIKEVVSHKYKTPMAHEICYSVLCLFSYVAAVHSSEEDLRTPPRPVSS
UniProt Q92626: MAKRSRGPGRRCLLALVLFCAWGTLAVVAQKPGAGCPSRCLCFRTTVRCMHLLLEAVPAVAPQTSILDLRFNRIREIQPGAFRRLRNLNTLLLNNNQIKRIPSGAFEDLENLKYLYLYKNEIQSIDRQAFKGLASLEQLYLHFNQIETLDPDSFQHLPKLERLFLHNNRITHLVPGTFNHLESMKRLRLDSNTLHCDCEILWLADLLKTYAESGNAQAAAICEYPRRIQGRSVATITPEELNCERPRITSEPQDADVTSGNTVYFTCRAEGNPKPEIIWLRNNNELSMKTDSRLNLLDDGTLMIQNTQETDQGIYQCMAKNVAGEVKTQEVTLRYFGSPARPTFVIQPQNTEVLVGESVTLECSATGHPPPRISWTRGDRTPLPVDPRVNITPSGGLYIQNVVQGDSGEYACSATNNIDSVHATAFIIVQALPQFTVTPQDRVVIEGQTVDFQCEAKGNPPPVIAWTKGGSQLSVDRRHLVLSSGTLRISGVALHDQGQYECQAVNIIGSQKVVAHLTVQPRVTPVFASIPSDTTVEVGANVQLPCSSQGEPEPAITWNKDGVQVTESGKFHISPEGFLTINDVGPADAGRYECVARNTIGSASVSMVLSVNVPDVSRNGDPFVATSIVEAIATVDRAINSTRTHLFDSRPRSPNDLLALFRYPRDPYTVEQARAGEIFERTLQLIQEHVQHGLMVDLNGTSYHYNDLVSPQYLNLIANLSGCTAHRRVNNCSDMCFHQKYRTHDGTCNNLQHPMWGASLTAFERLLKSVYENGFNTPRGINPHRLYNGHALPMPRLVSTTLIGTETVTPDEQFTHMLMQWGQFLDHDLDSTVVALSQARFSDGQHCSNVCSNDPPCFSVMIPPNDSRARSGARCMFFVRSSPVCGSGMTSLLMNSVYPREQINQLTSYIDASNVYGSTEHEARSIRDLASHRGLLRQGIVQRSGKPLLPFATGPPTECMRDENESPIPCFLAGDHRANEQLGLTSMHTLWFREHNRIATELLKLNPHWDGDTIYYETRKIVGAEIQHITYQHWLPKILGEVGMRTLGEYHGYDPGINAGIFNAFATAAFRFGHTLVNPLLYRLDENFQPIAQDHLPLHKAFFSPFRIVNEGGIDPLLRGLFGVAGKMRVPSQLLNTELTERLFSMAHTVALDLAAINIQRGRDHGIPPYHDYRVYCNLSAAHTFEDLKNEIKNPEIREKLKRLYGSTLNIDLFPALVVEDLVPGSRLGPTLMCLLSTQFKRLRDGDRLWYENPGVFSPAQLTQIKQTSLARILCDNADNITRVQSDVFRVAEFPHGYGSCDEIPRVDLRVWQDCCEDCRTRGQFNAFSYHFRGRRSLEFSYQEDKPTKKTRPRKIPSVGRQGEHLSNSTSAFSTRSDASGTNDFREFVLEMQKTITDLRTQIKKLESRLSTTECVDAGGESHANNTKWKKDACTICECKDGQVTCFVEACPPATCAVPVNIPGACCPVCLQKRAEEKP
UniProt Q8WWK9: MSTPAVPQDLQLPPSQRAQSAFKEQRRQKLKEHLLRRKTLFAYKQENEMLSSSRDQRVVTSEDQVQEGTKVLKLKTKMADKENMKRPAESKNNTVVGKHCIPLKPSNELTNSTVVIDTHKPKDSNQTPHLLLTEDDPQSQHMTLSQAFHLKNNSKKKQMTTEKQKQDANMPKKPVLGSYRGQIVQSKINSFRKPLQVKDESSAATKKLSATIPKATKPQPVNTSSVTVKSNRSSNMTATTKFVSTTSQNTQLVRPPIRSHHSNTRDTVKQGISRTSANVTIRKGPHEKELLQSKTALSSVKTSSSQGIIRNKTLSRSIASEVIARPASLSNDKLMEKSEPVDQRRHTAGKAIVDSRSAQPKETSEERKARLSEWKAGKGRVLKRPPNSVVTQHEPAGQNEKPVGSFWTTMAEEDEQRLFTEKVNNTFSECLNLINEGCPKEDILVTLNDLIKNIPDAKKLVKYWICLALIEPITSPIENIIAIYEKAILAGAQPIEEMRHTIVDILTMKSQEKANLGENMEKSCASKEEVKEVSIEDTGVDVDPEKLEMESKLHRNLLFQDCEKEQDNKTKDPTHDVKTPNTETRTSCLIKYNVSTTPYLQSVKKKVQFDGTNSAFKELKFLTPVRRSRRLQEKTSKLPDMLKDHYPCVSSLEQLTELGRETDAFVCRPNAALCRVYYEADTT

Compound: Nc1nc2c(ncn2[C@@H]2O[C@H](COP(=O)(O)OP(=O)(O)OP(=O)(O)O)[C@@H](O)[C@H]2O)c(=O)[nH]1 [guanosine triphosphate]
Test: NP40-soluble protein abundance relative to vehicle (solubility fold change) (ratio); higher = more soluble protein in presence of GTP
Summary of the method: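 Across three independent experiments, values are fold changes against the detergent-processed vehicle for each replicate, based on vsn-normalised intensities. The samples were Jurkat crude lysate treated with eight concentrations (0.1 to 10 mM) for 10 min at room temperature and then 3 min at 37 °C. Lysate was solubilised with 0.8% NP40 and benzonase, ultracentrifuged, and the supernatant analysed by TMT-labelled LC-MS/MS.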

Target	NP40-soluble protein abundance (concentration: 0.1mM)	NP40-soluble protein abundance (concentration: 0.5mM)	NP40-soluble protein abundance (concentration: 1mM)	NP40-soluble protein abundance (concentration: 2mM)	NP40-soluble protein abundance (concentration: 4mM)	NP40-soluble protein abundance (concentration: 6mM)	NP40-soluble protein abundance (concentration: 8mM)	NP40-soluble protein abundance (concentration: 10mM)
UniProt Q96AE7 and related entries	0.994 ± 0.053	0.985 ± 0.084	1.16 ± 0.067	1.21 ± 0.056	1 ± 0.095	1.12 ± 0.089	1.07 ± 0.037	1.04 ± 0.021
SMARCC1 (UniProt Q92922)	0.991 ± 0.028	1.07 ± 0.027	1.11 ± 0.048	1.14 ± 0.091	1.17 ± 0.14	1.18 ± 0.12	1.22 ± 0.19	1.23 ± 0.2
GNPNAT1 (UniProt Q96EK6)	1.03 ± 0.049	1.02 ± 0.027	0.976 ± 0.031	0.967 ± 0.018	0.947 ± 0.037	0.923 ± 0.056	0.908 ± 0.056	0.882 ± 0.045
UniProt Q96B23-2	0.952 ± 0.11	0.889 ± 0.046	0.927 ± 0.15	0.886 ± 0.18	0.859 ± 0.099	0.857 ± 0.13	0.872 ± 0.12	0.904 ± 0.13
DPH3 (UniProt Q96FX2)	0.8598 ± 0.0067	0.911 ± 0.16	0.728 ± 0.012	0.925 ± 0.15	0.878 ± 0.075	0.886 ± 0.15	0.869 ± 0.063	0.978 ± 0.17
UniProt Q8WWC4	0.951 ± 0.045	0.969 ± 0.053	0.943 ± 0.07	0.928 ± 0.04	0.96 ± 0.051	0.88 ± 0.053	0.892 ± 0.056	0.928 ± 0.05
UniProt Q96BY9 and related entries	1.08 ± 0.15	1.08 ± 0.064	1.09 ± 0.15	1.1 ± 0.094	1.03 ± 0.11	1.01 ± 0.1	1.05 ± 0.19	1.07 ± 0.22
UniProt Q96HY6 and related entries	1.12 ± 0.15	1.04 ± 0.089	1.06 ± 0.076	1.2 ± 0.17	1.18 ± 0.098	1.17 ± 0.089	1.12 ± 0.15	1.21 ± 0.031
UniProt Q92581 and related entries	1.01 ± 0.1	1.02 ± 0.035	0.915 ± 0.077	0.899 ± 0.07	0.941 ± 0.074	0.923 ± 0.073	0.88 ± 0.055	0.942 ± 0.053
USP13 (UniProt Q92995)	1 ± 0.037	0.995 ± 0.03	0.95 ± 0.034	0.947 ± 0.034	0.931 ± 0.055	0.925 ± 0.033	0.911 ± 0.05	0.886 ± 0.059
MRPL38 (UniProt Q96DV4)	1.11 ± 0.12	1.15 ± 0.27	1.32 ± 0.43	1.43 ± 0.45	1.49 ± 0.37	1.41 ± 0.5	1.44 ± 0.52	1.32 ± 0.45
UniProt Q96CN4 and related entries	0.974 ± 0.14	0.94 ± 0.019	0.959 ± 0.066	0.964 ± 0.019	1.01 ± 0.043	1.03 ± 0.1	0.976 ± 0.1	1 ± 0.063
UniProt Q8WXG6-4|Q8WXG6-5|Q8WXG6-6|Q8WXG6-8	1.05 ± 0.077	1.04 ± 0.053	1.05 ± 0.024	1.02 ± 0.042	1.04 ± 0.018	1.02 ± 0.034	1.07 ± 0.02	1.04 ± 0.03
UniProt Q93100 and related entries	1.14 ± 0.1	1.16 ± 0.14	1.15 ± 0.14	1.17 ± 0.18	1.19 ± 0.2	1.16 ± 0.18	1.21 ± 0.17	1.07 ± 0.16
PXDN (UniProt Q92626)	1.07 ± 0.025	1.093 ± 0.01	1.05 ± 0.072	1.06 ± 0.067	1.01 ± 0.036	1.02 ± 0.14	1.06 ± 0.14	1.05 ± 0.13
UniProt Q96GN5 and related entries	1.03 ± 0.018	1.05 ± 0.025	1.1 ± 0.014	1.186 ± 0.0088	1.37 ± 0.089	1.46 ± 0.15	1.5 ± 0.093	1.46 ± 0.046
UniProt Q96B97 and related entries	0.941 ± 0.12	0.938 ± 0.1	0.962 ± 0.1	0.943 ± 0.13	0.949 ± 0.1	0.935 ± 0.098	0.982 ± 0.11	0.966 ± 0.12
UniProt Q8WVT3	1.05 ± 0.031	1.01 ± 0.022	1.02 ± 0.03	1 ± 0.029	0.998 ± 0.05	0.993 ± 0.019	1.006 ± 0.0081	0.985 ± 0.046
MUL1 (UniProt Q969V5)	1.19 ± 0.079	1.1 ± 0.059	1.21 ± 0.033	1.06 ± 0.032	1.05 ± 0.019	1.08 ± 0.046	1.05 ± 0.03	0.979 ± 0.016
KCTD12 (UniProt Q96CX2)	1.07 ± 0.047	1.05 ± 0.046	0.974 ± 0.017	1.02 ± 0.03	0.983 ± 0.055	0.971 ± 0.048	0.95 ± 0.062	0.955 ± 0.052
SUCLG2 (UniProt Q96I99)	0.959 ± 0.049	0.966 ± 0.053	0.933 ± 0.043	0.901 ± 0.06	0.889 ± 0.059	0.889 ± 0.052	0.886 ± 0.048	0.871 ± 0.068
UniProt Q93084-2	1.01 ± 0.051	1.03 ± 0.036	0.939 ± 0.025	0.944 ± 0.064	0.952 ± 0.073	0.95 ± 0.052	0.934 ± 0.037	0.905 ± 0.059
LENG1 (UniProt Q96BZ8)	1.06 ± 0.072	0.886 ± 0.1	1.11 ± 0.062	1.21 ± 0.14	1.34 ± 0.086	1.27 ± 0.12	1.1 ± 0.18	1.48 ± 0.078
RABGGTA (UniProt Q92696)	1.04 ± 0.026	1.04 ± 0.075	0.896 ± 0.022	0.916 ± 0.068	0.91 ± 0.037	0.889 ± 0.032	0.847 ± 0.037	0.849 ± 0.07
UniProt Q8WWK9 and related entries	1.05 ± 0.038	0.984 ± 0.07	1.06 ± 0.1	1.04 ± 0.082	1.08 ± 0.064	1.08 ± 0.052	1.16 ± 0.064	1.16 ± 0.033

Some values from the results shown.
NP40-soluble protein abundance (concentration: 4mM) with UniProt Q96B23-2 is entered as 0.859 ± 0.099
NP40-soluble protein abundance (concentration: 0.1mM) with USP13 (UniProt Q92995) is entered as 1 ± 0.037
